According to patent US20160251436A1 (PD 1 ACQUISITION GROUP, published 2016):
Positions count from the first letter of the chain named. These are yes or no findings as the source states them, for the method shown. Some results given as binding are weak or reduced against the parent protein; the word gives no strength. Each block holds one binder with its values, some of them ahead of it.

Sequences of proteins named here, by UniProt entry; tags and fusion partners are left off. Residues count along the entry.
UniProt Q15116, residues 25-170: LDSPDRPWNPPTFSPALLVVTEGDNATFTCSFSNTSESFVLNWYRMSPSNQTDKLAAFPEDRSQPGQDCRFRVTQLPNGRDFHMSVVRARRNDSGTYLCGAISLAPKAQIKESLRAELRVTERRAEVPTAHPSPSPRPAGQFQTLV

Experiments:
[1] = molecular target: recombinant soluble extracellular domain (ECD) of PD-1 (R&D Systems) (UniProt Q15116); test: ELISA, PD-1 ECD coated on the plate, antibody titrated from about 0.003 to about 13 nM, OD 450 nm
[2] = molecular target: recombinant soluble extracellular domain (ECD) of PD-1 (R&D Systems) (UniProt Q15116); test: ELISA, ECD coated on the plate, range of antibody concentrations
[3] = molecular target: recombinant soluble extracellular domain (ECD) of PD-1 (R&D Systems) (UniProt Q15116); test: ELISA, ECD coated on the plate (figure legend)

- binding [1]: binds
- binding [2]: binds
- binding [3]: binds
B1: 100388_D4VH3_100389_D4VK5 (antibody, V domains shown)
VH: EVQLQESGAELVRPGASVTLSCKASGYTFTDYEMHWVKQTPVHGLEWIGVIDPGTGGTAYNQKFKVKALLTADKSSNTAYMELRSLTSEDSAVYYCTSEKFGSNYYFDYWGQGTTLTVSS
VL: DIVITQTPLSLPVSLGDQASISCRSSQTIVHSDGNTYLEWYLQKPGQSPKLLIYKVSNRFSGVPDRFSGSGSGTDFTLKISRVEAEDLGVYYCFQGSHVPLTFGAGTKLEIK
notes: Mouse variable regions; cloned into pFUSE-CHIg-mG1 (murine IgG1 Fc), expressed in HEK293

- binding [1]: binds
- binding [2]: binds
- binding [3]: binds
B2: 100413_E1VH9_100414_E1VK5 (antibody, V domains shown)
VH: EVQLQESGPSLVQPSQSLSITCTVSGFSLTSYGVHWVRQSPGKGLEWLGVIWRGGNTDYNAAFMSRLSITKDNSKSQVFFKMNSLQADDTAIYYCAASMIGGYWGQGTTLTVSS
VL: B1 VL with I4L, T28S, D33N, D75N, I111L
notes: as for B1

- binding [1]: binds
- binding [2]: binds
- binding [3]: binds
B3: 100244_C8VH3_100245_C8VK5 (antibody, V domains shown)
VH: EVQLQESGPELVRPGASVKMSCKASGYTFTSYWMHWVKQRPGQGLEWIGMIDPSNSETSLNQKFKDKATLNVDKSTNTAYMQLSSLTSEDSAVYYCARSRGNYAYEMDYWGQGTSVTVSS
VL: DIVITQTTAIMSASPGEKVTLTCSASSSVSSNYLYWYQQRPGSSPKLWIYSTSNLASGVPARFSGSGSGTSYSLTISSMEAEDAASYFCHQWSSYPPTFGSGTKLEIK
notes: as for B1

- binding [1]: binds
- binding [2]: binds
- binding [3]: binds
B4: 100246_A10VH1_100247_A10VK3 (antibody, V domains shown)
VH: EVQLQESGPGLVKPSQSLSLTCTVTGYSITSDYAWNWIRQFPGNKLEWMGYITYSGSPTYNPSLKSQFSITRDTSKNQFFLQLNSLTTEDTATYYCARGLGGHYFDYWGQGTTLTVSS
VL: DIVLTQSPDTLSVTPGDRVSLSCRASQSISDYLHWYQQKSHESPRLLIKYASQSISGIPSRFSGSGSGSDFTLSINSVEPEDVGVYYCQNGHSYPYTFGGGTKLELK
notes: as for B1
